Test results published in paper PMC4741966.
No constants are given. Whether binding was seen depends on the method and setting. In cells and extracts the contact can be indirect. Some binding calls cover weakened binding; strength is not graded here.

Amino acid sequences for entries named in this document (tags omitted).
UniProt Q64010: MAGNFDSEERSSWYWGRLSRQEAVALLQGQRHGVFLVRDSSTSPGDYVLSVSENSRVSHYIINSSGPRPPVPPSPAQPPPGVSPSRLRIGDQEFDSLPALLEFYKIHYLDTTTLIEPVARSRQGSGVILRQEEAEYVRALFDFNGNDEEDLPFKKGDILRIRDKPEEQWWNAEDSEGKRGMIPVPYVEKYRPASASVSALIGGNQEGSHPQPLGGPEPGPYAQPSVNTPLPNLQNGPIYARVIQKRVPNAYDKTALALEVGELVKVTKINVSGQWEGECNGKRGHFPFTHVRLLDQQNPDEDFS
UniProt P00520: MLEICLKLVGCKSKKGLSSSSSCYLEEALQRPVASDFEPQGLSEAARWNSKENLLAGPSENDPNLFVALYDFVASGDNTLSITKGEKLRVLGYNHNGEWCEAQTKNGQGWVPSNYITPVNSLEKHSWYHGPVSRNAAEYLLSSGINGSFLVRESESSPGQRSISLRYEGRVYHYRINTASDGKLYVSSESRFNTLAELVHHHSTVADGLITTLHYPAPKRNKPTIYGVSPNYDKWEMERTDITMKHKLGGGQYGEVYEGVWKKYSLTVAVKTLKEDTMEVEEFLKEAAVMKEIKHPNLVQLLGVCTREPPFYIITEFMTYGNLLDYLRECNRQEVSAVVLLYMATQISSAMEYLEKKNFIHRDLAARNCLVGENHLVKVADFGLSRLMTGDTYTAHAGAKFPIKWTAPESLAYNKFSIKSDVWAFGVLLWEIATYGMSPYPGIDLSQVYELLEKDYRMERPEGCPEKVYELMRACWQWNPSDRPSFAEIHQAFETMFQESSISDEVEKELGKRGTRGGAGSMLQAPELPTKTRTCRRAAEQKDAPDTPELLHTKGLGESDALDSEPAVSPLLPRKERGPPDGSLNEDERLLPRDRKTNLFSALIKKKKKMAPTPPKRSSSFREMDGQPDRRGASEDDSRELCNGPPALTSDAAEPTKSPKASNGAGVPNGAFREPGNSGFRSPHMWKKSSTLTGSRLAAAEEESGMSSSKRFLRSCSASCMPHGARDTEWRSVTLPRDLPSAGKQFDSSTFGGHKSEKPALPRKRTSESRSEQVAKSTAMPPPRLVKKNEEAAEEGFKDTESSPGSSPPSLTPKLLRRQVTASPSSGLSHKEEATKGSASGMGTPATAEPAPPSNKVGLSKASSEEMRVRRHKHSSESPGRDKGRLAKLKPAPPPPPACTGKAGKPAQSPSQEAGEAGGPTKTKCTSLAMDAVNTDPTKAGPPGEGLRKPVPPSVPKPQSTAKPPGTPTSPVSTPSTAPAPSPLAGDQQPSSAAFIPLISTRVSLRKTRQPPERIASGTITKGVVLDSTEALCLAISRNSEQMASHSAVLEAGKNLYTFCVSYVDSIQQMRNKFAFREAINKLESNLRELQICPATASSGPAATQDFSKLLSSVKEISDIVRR

Target: Crk (endogenous, in MEFs) (mouse (endogenous in MEFs)) (UniProt Q64010)
Assay: co-IP; endogenous proteins; Crk immunoprecipitated and blotted for Abl, and the reverse with an Abl antibody and a Crk blot; Abi1-/- MEFs compared with Abi1-expressing cells, after diluent or hEGF; lysis in 1% HNTG buffer, protein A/G agarose, washes with 0.1% HNTG

- binding: binds
Substance: Abl kinase (endogenous, in MEFs) (from UniProt P00520 1-1123) (enzyme)
